Test results as given in PMC10830551.
These are yes or no findings as the source states them, for the method shown. Binding seen in cells or lysates may run through a third protein. Some entries that bind do so weakly or less than the wild type.

Sequences of proteins named here, by UniProt entry; tags and fusion partners are left off. Residues count along the entry.
UniProt Q9HCK4, residues 22-1378: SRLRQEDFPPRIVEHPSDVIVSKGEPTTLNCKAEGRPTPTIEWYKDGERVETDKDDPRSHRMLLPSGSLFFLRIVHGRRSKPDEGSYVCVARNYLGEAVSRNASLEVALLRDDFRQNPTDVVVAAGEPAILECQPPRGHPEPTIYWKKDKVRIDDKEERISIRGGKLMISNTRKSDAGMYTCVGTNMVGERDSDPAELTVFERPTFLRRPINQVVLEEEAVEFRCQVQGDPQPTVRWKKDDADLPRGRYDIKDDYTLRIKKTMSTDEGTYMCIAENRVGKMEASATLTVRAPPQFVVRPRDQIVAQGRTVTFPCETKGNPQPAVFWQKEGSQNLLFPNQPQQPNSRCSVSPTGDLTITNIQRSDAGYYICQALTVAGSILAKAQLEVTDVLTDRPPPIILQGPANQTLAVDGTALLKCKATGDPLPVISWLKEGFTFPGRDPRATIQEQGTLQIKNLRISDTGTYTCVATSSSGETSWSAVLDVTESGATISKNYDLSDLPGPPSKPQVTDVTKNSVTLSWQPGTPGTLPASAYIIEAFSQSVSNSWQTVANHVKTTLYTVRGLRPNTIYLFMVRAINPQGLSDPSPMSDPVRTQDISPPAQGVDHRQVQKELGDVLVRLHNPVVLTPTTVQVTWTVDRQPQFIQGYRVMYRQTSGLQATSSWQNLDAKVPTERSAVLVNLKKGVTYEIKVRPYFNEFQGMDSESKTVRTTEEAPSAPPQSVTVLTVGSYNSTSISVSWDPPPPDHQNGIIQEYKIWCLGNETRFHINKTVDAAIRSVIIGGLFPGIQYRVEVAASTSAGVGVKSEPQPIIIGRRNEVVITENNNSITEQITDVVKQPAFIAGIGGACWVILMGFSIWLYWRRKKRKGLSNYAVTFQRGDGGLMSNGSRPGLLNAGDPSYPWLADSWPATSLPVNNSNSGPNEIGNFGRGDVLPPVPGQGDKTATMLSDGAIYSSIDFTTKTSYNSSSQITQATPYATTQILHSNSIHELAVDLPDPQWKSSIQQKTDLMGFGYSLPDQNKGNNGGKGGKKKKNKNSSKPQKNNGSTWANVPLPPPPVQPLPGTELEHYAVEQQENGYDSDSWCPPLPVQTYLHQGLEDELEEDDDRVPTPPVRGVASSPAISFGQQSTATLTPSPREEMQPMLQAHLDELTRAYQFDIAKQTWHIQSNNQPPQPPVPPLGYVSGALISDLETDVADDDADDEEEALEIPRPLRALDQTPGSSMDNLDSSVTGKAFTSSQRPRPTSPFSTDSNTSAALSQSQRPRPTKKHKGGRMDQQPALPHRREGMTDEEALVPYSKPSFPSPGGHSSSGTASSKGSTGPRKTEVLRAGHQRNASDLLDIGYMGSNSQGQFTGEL
UniProt P67809: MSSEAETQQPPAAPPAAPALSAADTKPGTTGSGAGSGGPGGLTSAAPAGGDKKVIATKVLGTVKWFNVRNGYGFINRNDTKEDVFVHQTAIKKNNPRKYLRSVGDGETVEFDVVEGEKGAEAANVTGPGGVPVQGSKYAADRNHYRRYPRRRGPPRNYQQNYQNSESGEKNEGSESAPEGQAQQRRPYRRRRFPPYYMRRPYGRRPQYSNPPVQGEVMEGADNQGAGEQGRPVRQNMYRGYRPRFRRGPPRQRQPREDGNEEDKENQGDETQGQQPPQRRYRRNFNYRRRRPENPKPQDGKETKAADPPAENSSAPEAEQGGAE

How the values were obtained:
[1] = target: Roundabout guidance receptor 2 (human (endogenous in HepG2 or Huh7)) (UniProt Q9HCK4); experiment: co-IP; total cell protein in cold lysis buffer, precleared with protein A/G agarose beads; primary antibody (rabbit anti-YB-1 or mouse anti-Robo2) overnight at 4 C, protein A/G magnetic beads 2 h; western blot of the partner; controls normal rabbit or mouse IgG
[2] = target: Y-box binding protein 1 (human (endogenous in HepG2 or Huh7)) (UniProt P67809); experiment: as above

binding [1]	binding [2]	Substance
binds	–	Y-box binding protein 1 (from UniProt P67809 1-324)
–	binds	Roundabout guidance receptor 2 (from UniProt Q9HCK4 22-1378)
